We go through one molecule from PMC3945201.

No constants are given. Whether binding was seen depends on the method and setting. Binding seen in cells or lysates may run through a third protein. Some entries that bind do so weakly or less than the wild type. Tags and fused reporters may be left off the sequences shown.

The assay has as its target T1, Fun12-TAP (TAP-tagged Fun12, the yeast homologue of eIF5B) (S. cerevisiae) (UniProt P39730).
T1 sequence: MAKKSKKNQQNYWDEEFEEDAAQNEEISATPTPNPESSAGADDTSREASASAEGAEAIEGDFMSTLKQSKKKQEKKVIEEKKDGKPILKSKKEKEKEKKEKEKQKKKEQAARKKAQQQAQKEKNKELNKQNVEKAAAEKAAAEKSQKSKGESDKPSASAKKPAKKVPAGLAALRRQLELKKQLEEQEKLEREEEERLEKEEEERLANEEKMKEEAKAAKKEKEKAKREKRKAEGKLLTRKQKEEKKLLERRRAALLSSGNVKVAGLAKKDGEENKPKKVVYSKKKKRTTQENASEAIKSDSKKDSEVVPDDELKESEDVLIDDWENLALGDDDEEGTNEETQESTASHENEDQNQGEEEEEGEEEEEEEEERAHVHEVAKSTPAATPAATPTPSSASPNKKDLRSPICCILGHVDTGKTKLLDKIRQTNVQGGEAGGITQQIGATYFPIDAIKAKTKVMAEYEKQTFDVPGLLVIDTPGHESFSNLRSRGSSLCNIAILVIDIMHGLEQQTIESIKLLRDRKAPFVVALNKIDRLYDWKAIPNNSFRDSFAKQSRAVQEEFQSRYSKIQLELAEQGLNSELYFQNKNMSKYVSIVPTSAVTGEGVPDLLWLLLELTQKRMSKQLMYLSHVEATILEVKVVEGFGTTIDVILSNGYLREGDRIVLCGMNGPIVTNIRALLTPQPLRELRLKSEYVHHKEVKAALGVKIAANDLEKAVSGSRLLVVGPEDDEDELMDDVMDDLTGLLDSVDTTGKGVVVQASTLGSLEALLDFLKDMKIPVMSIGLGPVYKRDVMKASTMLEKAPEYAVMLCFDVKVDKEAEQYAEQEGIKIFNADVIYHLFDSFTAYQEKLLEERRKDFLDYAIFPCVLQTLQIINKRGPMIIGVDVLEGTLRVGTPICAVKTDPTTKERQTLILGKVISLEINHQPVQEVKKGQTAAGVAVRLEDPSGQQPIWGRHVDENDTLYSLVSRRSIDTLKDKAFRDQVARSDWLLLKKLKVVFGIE
As to the kind of experiment: co-IP; Fun12-TAP precipitated with IgG-Sepharose from total extracts of wild-type and rpl3[W255C] cells grown at 23°C in YPD to mid-log phase; immunoprecipitates analysed by SDS-PAGE and Western blotting with specific antibodies. Background: Immunoblotting shows a protein as a band on a membrane.

B1: Nob1 (enzyme, UniProt Q08444 1-459)
chain: MTENQTAHVRALILDATPLITQSYTHYQNYAQSFYTTPTVFQEIKDAQARKNLEIWQSLGTLKLVHPSENSIAKVSTFAKLTGDYSVLSANDLHILALTYELEIKLNNGDWRLRKKPGDALDASKADVGTDGKQKLTEDNKKEEDSESVPKKKNKRRGGKKQKAKREAREAREAENANLELESKAEEHVEEAGSKEQICNDENIKESSDLNEVFEDADDDGDWITPENLTEAIIKDSGEDTTGSLGVEASEEDRHVALNRPENQVALATGDFAVQNVALQMNLNLMNFMSGLKIKRIRNYMLRCHACFKIFPLPKDGKPKHFCASCGGQGTLLRCAVSVDSRTGNVTPHLKSNFQWNNRGNRYSVASPLSKNSQKRYGKKGHVHSKPQENVILREDQKEYEKVIKQEEWTRRHNEKILNNWIGGGSADNYISPFAITGLKQHNVRIGKGRYVNSSKRRS
For the molecule B1, the binding result was “binds”.
